± gives the standard deviation of the averaged measurements. Only a part is listed here, and it is no random draw.
Compound: Nc1ncnc2c1ncn2[C@@H]1O[C@H](COP(=O)(O)OP(=O)(O)NP(=O)(O)O)[C@@H](O)[C@H]1O [adenylyl imidodiphosphate]
Assay: NP40-soluble protein abundance relative to vehicle (solubility fold change) (ratio); higher = more soluble protein in presence of AMP-PNP
In short: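 In three independent experiments, Jurkat crude lysate made by Dounce homogenisation was treated for 10 min at room temperature and then 3 min at 37 °C with eight concentrations ranging from 0.1 to 10 mM. It was then solubilised with 0.8% NP40 plus benzonase for 60 min at 4 °C and ultracentrifuged. The supernatant was TMT-labelled for LC-MS/MS, and each value is the fold change against the detergent-processed vehicle for the same replicate, using vsn-normalised intensities.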

By UniProt entry, the sequences of proteins in these tests, tags left out. Where a name states a change or a piece, a line headed by the entry shows the natural chain unless it says otherwise.
UniProt P52732: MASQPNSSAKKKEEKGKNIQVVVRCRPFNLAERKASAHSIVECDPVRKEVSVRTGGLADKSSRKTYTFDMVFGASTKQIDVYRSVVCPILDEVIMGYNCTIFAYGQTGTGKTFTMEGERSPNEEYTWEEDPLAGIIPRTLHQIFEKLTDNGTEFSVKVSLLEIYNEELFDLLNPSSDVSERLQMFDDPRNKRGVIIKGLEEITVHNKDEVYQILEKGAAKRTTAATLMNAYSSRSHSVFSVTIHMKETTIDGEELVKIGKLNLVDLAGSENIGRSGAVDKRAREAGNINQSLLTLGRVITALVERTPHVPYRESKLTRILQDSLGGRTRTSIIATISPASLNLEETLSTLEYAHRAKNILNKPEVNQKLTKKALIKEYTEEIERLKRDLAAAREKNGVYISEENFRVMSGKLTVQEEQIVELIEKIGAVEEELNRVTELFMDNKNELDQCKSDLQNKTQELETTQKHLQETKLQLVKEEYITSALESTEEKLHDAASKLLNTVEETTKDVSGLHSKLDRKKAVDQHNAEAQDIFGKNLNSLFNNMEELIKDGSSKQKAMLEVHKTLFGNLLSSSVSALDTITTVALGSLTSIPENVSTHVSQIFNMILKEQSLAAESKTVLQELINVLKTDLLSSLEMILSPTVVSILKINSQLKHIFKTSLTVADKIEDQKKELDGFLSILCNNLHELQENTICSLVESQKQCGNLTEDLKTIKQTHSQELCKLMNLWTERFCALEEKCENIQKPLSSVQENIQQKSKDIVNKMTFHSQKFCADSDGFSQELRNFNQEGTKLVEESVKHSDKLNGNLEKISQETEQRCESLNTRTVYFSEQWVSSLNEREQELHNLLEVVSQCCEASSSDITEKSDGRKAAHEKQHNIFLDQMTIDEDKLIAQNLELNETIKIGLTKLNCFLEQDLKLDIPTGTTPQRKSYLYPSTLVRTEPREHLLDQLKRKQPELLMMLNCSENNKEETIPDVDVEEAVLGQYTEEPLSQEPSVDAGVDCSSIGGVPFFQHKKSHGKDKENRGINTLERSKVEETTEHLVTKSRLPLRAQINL
UniProt P48739: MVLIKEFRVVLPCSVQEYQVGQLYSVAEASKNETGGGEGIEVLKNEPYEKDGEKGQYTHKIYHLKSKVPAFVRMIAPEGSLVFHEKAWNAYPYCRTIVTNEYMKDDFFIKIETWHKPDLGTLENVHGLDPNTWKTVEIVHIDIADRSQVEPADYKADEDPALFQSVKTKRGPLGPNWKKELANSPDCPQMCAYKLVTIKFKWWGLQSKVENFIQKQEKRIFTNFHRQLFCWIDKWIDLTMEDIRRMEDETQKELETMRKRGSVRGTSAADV
UniProt P46013: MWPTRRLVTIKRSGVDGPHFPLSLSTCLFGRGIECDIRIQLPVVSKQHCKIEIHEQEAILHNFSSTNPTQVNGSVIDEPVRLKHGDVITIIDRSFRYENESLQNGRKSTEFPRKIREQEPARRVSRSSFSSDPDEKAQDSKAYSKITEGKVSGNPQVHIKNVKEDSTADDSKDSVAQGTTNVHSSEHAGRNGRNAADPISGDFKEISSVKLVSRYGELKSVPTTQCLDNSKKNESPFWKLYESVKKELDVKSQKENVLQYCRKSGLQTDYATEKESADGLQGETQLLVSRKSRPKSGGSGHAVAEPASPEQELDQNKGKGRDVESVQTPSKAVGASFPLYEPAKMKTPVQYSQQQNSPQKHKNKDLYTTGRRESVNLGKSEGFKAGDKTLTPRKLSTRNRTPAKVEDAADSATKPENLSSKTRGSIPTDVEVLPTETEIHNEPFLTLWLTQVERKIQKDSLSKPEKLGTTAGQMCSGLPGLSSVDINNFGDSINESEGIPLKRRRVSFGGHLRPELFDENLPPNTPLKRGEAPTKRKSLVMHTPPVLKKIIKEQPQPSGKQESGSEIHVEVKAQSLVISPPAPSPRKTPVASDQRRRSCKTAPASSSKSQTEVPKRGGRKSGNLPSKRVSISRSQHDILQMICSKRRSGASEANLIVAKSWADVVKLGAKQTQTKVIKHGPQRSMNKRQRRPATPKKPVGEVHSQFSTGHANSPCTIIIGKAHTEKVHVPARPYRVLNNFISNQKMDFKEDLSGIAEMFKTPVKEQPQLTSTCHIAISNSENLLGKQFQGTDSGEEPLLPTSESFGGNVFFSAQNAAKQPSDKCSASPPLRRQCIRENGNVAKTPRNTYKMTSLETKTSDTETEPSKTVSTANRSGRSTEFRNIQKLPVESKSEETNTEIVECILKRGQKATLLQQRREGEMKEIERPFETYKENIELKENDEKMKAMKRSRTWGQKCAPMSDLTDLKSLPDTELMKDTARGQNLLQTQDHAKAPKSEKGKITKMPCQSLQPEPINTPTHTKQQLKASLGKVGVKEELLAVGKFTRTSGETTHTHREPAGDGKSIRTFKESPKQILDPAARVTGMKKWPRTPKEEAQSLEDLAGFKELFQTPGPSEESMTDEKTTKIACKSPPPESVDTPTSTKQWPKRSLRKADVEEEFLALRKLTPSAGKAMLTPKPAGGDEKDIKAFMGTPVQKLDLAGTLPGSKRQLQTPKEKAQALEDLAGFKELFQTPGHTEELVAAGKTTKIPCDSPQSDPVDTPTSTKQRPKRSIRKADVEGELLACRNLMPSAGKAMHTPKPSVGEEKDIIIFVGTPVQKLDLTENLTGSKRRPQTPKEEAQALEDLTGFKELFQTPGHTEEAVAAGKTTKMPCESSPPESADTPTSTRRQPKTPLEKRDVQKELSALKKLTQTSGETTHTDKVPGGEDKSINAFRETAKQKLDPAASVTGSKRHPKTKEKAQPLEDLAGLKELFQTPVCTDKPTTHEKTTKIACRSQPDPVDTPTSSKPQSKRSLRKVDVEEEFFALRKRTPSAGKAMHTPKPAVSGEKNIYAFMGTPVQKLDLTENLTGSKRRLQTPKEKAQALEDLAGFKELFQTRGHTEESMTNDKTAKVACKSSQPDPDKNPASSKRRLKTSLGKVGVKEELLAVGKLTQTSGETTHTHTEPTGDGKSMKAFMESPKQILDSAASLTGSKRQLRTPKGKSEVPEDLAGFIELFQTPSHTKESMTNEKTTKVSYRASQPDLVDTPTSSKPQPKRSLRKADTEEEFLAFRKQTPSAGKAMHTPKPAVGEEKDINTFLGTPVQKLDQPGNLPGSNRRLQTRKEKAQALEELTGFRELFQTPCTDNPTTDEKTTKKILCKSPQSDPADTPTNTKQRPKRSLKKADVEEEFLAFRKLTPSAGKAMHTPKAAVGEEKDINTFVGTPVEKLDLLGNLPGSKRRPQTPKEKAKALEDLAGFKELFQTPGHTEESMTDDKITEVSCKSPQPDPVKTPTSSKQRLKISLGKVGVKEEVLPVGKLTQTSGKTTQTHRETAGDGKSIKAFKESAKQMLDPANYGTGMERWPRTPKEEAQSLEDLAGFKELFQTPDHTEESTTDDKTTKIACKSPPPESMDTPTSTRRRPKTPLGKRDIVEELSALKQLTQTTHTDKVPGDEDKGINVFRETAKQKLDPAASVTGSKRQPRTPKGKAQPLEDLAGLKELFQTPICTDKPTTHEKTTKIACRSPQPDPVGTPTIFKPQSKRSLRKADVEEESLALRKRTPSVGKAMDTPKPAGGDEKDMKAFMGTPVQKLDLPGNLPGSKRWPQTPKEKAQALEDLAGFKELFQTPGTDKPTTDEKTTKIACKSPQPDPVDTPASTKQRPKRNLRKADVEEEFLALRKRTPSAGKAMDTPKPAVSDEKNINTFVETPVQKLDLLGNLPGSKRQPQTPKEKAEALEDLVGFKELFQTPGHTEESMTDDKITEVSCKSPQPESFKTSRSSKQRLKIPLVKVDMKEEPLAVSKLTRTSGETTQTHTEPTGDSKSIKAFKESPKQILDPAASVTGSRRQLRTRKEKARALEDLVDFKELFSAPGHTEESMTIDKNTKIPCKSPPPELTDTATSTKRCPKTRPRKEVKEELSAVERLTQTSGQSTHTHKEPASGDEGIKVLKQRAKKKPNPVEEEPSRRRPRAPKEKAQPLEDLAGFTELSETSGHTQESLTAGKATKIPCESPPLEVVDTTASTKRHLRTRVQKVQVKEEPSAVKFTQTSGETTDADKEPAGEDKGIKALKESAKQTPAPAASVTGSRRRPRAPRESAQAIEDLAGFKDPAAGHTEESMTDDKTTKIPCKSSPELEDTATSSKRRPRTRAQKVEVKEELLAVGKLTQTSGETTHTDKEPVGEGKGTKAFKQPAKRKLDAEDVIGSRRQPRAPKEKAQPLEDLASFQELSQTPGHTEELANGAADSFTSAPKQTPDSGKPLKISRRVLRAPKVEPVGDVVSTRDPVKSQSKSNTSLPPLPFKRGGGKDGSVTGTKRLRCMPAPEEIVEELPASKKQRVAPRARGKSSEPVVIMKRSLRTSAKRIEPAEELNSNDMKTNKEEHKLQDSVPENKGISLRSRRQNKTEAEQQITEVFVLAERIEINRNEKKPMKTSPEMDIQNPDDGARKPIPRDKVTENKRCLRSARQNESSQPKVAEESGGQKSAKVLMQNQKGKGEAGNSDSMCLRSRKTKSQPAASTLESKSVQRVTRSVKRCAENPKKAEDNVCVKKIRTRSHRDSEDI
UniProt P50148, whole entry: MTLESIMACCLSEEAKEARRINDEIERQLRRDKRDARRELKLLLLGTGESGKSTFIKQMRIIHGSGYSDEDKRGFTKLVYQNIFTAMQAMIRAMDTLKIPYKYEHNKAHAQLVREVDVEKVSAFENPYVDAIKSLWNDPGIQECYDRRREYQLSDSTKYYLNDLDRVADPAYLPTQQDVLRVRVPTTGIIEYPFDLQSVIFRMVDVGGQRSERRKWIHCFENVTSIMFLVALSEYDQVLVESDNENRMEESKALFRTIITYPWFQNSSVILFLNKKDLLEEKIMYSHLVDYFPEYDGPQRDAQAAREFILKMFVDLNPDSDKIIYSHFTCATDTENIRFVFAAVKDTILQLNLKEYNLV
UniProt P49641: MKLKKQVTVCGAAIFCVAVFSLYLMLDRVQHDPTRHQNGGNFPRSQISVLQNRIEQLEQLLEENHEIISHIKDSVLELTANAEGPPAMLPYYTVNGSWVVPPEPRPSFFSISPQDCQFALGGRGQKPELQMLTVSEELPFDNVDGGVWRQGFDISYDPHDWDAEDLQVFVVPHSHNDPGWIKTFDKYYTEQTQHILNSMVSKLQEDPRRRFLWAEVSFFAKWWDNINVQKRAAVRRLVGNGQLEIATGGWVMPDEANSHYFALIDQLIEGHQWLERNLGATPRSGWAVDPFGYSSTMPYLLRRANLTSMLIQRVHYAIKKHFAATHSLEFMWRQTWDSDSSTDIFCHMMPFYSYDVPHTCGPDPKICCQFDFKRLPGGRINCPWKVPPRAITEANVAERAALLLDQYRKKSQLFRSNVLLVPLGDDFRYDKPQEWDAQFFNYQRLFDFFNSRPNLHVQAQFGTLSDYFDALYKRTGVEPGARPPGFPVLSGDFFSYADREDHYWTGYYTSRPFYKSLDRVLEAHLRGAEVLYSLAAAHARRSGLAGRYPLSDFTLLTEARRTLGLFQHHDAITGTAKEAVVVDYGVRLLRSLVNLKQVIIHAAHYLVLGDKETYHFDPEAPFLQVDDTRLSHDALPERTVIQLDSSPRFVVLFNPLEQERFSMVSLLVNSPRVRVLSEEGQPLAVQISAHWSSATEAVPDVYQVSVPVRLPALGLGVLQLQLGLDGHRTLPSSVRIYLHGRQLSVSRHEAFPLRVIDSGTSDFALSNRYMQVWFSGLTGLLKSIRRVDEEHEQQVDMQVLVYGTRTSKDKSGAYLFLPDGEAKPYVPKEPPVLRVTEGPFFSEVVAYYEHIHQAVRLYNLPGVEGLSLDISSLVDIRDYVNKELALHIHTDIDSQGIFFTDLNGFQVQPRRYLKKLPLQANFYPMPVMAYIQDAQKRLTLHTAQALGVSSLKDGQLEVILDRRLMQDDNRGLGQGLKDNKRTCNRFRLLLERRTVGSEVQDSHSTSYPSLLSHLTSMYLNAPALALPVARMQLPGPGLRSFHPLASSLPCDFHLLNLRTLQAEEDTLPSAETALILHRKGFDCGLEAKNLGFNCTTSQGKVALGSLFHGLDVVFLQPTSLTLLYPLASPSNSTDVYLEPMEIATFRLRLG
UniProt P50336: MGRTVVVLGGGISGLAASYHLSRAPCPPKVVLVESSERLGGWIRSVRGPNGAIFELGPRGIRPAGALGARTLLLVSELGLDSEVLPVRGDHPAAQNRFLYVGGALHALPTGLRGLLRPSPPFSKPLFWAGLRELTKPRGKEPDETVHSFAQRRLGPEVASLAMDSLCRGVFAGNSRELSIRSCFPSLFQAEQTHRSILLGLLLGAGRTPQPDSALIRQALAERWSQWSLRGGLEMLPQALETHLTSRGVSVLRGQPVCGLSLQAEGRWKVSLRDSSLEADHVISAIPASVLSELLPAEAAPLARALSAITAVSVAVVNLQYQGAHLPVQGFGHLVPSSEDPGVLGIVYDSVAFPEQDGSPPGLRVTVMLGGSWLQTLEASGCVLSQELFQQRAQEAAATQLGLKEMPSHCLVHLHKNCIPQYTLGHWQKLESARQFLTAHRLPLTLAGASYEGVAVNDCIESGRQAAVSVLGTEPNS

Target	NP40-soluble protein abundance (concentration: 1mM)	NP40-soluble protein abundance (concentration: 2mM)	NP40-soluble protein abundance (concentration: 4mM)	NP40-soluble protein abundance (concentration: 6mM)	NP40-soluble protein abundance (concentration: 8mM)	NP40-soluble protein abundance (concentration: 10mM)
HSPA13 (UniProt P48723)	1.05 ± 0.051	1.05 ± 0.044	1.06 ± 0.067	1.04 ± 0.011	1.05 ± 0.045	1.03 ± 0.043
UniProt P51797 and related entries	1.02 ± 0.025	1.05 ± 0.033	1.02 ± 0.016	1 ± 0.014	0.986 ± 0.031	1.02 ± 0.027
UniProt P52735 and related entries	0.969 ± 0.017	0.947 ± 0.024	0.945 ± 0.028	0.934 ± 0.051	0.936 ± 0.039	0.918 ± 0.063
MTOR (UniProt P42345)	0.982 ± 0.033	0.938 ± 0.07	0.971 ± 0.019	0.932 ± 0.025	0.938 ± 0.021	0.9298 ± 0.0017
UniProt P49368 and related entries	0.945 ± 0.057	0.927 ± 0.047	0.934 ± 0.077	0.937 ± 0.061	0.922 ± 0.04	0.932 ± 0.13
ARHGDIB (UniProt P52566)	1.04 ± 0.019	1.05 ± 0.043	0.98 ± 0.067	1.03 ± 0.035	1.05 ± 0.024	1.05 ± 0.04
ETV6 (UniProt P41212)	0.975 ± 0.03	0.9849 ± 0.0036	0.957 ± 0.035	1 ± 0.026	0.9823 ± 0.0063	0.947 ± 0.047
KIF11 (UniProt P52732)	1.01 ± 0.016	1 ± 0.017	0.966 ± 0.012	0.936 ± 0.035	0.9 ± 0.011	0.904 ± 0.0075
UniProt P48739 and related entries	0.971 ± 0.022	0.927 ± 0.087	0.95 ± 0.035	0.978 ± 0.04	0.98 ± 0.04	0.974 ± 0.052
GALK1 (UniProt P51570)	1 ± 0.032	0.985 ± 0.037	1.04 ± 0.017	1 ± 0.019	1.03 ± 0.011	1.03 ± 0.025
UniProt P46013 and related entries	1.058 ± 0.0011	1.12 ± 0.075	1.08 ± 0.035	1.07 ± 0.011	1.05 ± 0.024	1.1 ± 0.062
CASP2 (UniProt P42575)	1.01 ± 0.053	0.976 ± 0.052	0.989 ± 0.028	0.992 ± 0.05	1.01 ± 0.048	0.984 ± 0.042
UniProt P42568 and related entries	1 ± 0.019	1.01 ± 0.013	1.03 ± 0.039	1.01 ± 0.017	1.02 ± 0.011	1.061 ± 0.0051
GNAQ (UniProt P50148)	1.03 ± 0.033	0.986 ± 0.064	0.981 ± 0.019	0.97 ± 0.05	0.964 ± 0.02	0.965 ± 0.041
UniProt P55072	0.961 ± 0.032	0.945 ± 0.037	0.946 ± 0.048	0.973 ± 0.041	0.95 ± 0.018	0.95 ± 0.063
UniProt P52758	0.978 ± 0.042	0.986 ± 0.043	0.978 ± 0.044	1.02 ± 0.085	1 ± 0.09	1 ± 0.067
CCT6A (UniProt P40227)	0.869 ± 0.18	0.873 ± 0.11	0.826 ± 0.19	0.922 ± 0.09	0.836 ± 0.18	0.912 ± 0.16
NOTCH1 (UniProt P46531)	1.03 ± 0.011	1.05 ± 0.041	1.01 ± 0.015	1.01 ± 0.028	0.9787 ± 0.008	0.969 ± 0.038
IQGAP1 (UniProt P46940)	0.97 ± 0.026	0.934 ± 0.035	0.974 ± 0.034	0.997 ± 0.026	0.998 ± 0.015	0.997 ± 0.025
USP8 (UniProt P40818)	1.036 ± 0.0058	1.05 ± 0.033	1.048 ± 0.0058	0.997 ± 0.015	0.996 ± 0.042	1.01 ± 0.033
CRKL (UniProt P46109)	1.026 ± 0.0079	1.04 ± 0.03	1.03 ± 0.0095	0.998 ± 0.022	0.985 ± 0.018	0.985 ± 0.049
UniProt P51608-2|P51608 and related entries	1.04 ± 0.023	1.06 ± 0.016	1.04 ± 0.046	1.07 ± 0.019	1.07 ± 0.028	1.15 ± 0.042
KNTC1 (UniProt P50748)	0.914 ± 0.038	0.856 ± 0.086	0.946 ± 0.053	0.958 ± 0.038	0.987 ± 0.026	0.935 ± 0.075
UniProt P50579 and related entries	1.033 ± 0.0092	1.07 ± 0.042	1.04 ± 0.038	1.02 ± 0.015	1.01 ± 0.022	1.028 ± 0.0084
UniProt P49641 and related entries	0.9774 ± 0.0012	0.98 ± 0.018	0.9624 ± 0.0049	0.981 ± 0.052	0.974 ± 0.047	0.993 ± 0.052
UniProt P49321 and related entries	0.984 ± 0.025	1.04 ± 0.07	0.955 ± 0.043	0.964 ± 0.03	0.915 ± 0.022	0.914 ± 0.051
UniProt P53677 and related entries	1.01 ± 0.016	1.01 ± 0.021	1 ± 0.015	0.995 ± 0.014	1.03 ± 0.032	0.998 ± 0.054
UniProt P47813	1.02 ± 0.043	1.08 ± 0.079	1.06 ± 0.08	1.22 ± 0.081	1.29 ± 0.083	1.33 ± 0.12
PPOX (UniProt P50336)	0.9241 ± 0.0018	0.853 ± 0.12	0.9404 ± 0.0044	0.9541 ± 0.0089	0.981 ± 0.028	0.953 ± 0.033
ACADSB (UniProt P45954)	1.005 ± 0.0092	0.972 ± 0.065	1.004 ± 0.0072	0.997 ± 0.034	1.02 ± 0.033	1 ± 0.053

As entered above.
NP40-soluble protein abundance (concentration: 1mM), UniProt P48739 and related entries reads 0.971 ± 0.022
NP40-soluble protein abundance (concentration: 8mM), PPOX (UniProt P50336) reads 0.981 ± 0.028
